Data as given in PubChem BioAssay AID1259254 (NCATS, 2017)
Shown is an unselected part of about 59,000 deposited reagents. About 1,550 of them (2.6%) count as active. 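G2 share is only a proxy for re-replication; each gene was hit by three separate siRNAs, and active genes were retested.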 The raw values are shown without normalisation. A number with no mark means an inactive call. Reagents against one gene are numbered here. No sequences are given here. The record does not give: the amount of reagent.

- Screen: 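Finding genes that stop cells copying their DNA twice in one cycle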 (primary screen)
- Cells: human HCT116 colorectal cancer cells
- Knock-down reagent: single siRNA against human genes
- Timing: 3 days
- Measurement: 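Imaged Hoechst DNA stain sorts each cell into a cycle phase by DNA amount; per plate, G2 fraction set to 0% for non-targeting and 100% for GMNN siRNA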
- Reading the numbers: G2 robust z-score and G2 cells, % of GMNN control: higher = more G2 cells, more excess DNA replication; raw share of cells in G2: higher = larger share of cells with G2 DNA content
- Active means: 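An siRNA counts as active if its G2 robust z-score lies at least 5 MADs above the screen median; here such calls match roughly 38% of GMNN control or more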

no.	gene	reagent	G2 robust z-score	G2 cells, % of GMNN control	raw share of cells in G2 (%)
1	BCR	1	-0.64	-1.54	4.2
2	BCR	2	-0.282	0.986	5.42
3	BCR	3	0.515	6.59	6.45
4	ADCY1	1	-0.664	-1.7	4.14
5	ADCY1	2	1.11	10.8	8.01
6	ADCY1	3	-1.35	-6.55	2.74
7	CFAP157	1	0.579	7.04	6.21
8	CFAP157	2	0.444	6.09	5.4
9	CFAP157	3	-0.599	-1.25	2.89
10	GTF2IRD1	1	0.805	8.63	6.4
11	GTF2IRD1	2	0.614	7.29	9.23
12	GTF2IRD1	3	0.272	4.88	5.38
13	FOXO1	1	-0.535	-0.796	3.37
14	FOXO1	2	-0.328	0.661	5.48
15	FOXO1	3	5.16 (active)	39.3	20.2
16	RBSN	1	-0.324	0.685	4.88
17	RBSN	2	1.08	10.6	9.35
18	RBSN	3	-0.274	1.04	2.97
19	TMED9	1	0.0572	3.37	4.81
20	TMED9	2	-0.398	0.165	4.34
21	TMED9	3	0.554	6.87	5.46
22	EBAG9	1	0.217	4.49	7.12
23	EBAG9	2	-0.514	-0.652	3.64
24	EBAG9	3	-1.2	-5.49	1.41
25	LINC01556	1	-0.338	0.587	3.39
26	LINC01556	2	-0.391	0.215	4.18
27	LINC01556	3	1.54	13.8	7.87

Individual results from the entries so far:
Under “G2 robust z-score”, EBAG9 #3 shows -1.2
Result of FOXO1 #3 in “G2 robust z-score”: 5.16 (active)
For “G2 cells, % of GMNN control”, EBAG9 #1 reads 4.49
CFAP157 #2, G2 robust z-score → 0.444
GTF2IRD1 #2, G2 robust z-score → 0.614
Result of ADCY1 #3 in “G2 cells, % of GMNN control”: -6.55

The results go on:
no.	gene	reagent	G2 robust z-score	G2 cells, % of GMNN control	raw share of cells in G2 (%)
28	NUFIP2	1	-0.472	-0.353	4.21
29	NUFIP2	2	-0.819	-2.79	3.12
30	NUFIP2	3	1.62	14.3	7.57
31	DNTTIP2	1	7.11 (active)	53	24.1
32	DNTTIP2	2	-0.114	2.17	5.37
33	DNTTIP2	3	-0.107	2.22	3.95
34	EDDM3B	1	-1.35	-6.55	2.93
35	EDDM3B	2	0.541	6.78	6.74
36	EDDM3B	3	1.32	12.2	8.67
37	RGS10	1	5.06 (active)	38.6	18.3
38	RGS10	2	-0.288	0.938	4.46
39	RGS10	3	0.942	9.59	8.34
40	FGF19	1	-0.345	0.539	5.57
41	FGF19	2	0.169	4.16	5.68
42	FGF19	3	0.498	6.47	5.76
43	ETV6	1	-0.118	2.14	6.01
44	ETV6	2	-0.421	0.00464	3.66
45	ETV6	3	-0.983	-3.95	3.76
46	COPS6	1	-0.24	1.28	5.49
47	COPS6	2	-0.869	-3.14	2.84
48	COPS6	3	0.455	6.17	5.48
49	OS9	1	2.39	19.8	12.7
50	OS9	2	0.311	5.15	6.26
51	OS9	3	0.327	5.26	5.14
52	HAGHL	1	3.15	25.1	14.1
53	HAGHL	2	1.15	11	8.19
54	HAGHL	3	1.03	10.2	9.69
55	RASSF5	1	-0.652	-1.62	3.61
56	RASSF5	2	1.45	13.1	9.65
57	RASSF5	3	0.531	6.7	8.22
58	TOP3B	1	1.36	12.5	9.19
59	TOP3B	2	1.73	15.1	10.6
60	TOP3B	3	-0.458	-0.253	4.42
61	PPIP5K2	1	-0.213	1.47	5.56
62	PPIP5K2	2	0.148	4.01	5.79
63	PPIP5K2	3	-0.828	-2.86	2.1
64	OTOR	1	0.927	9.49	8.09
65	OTOR	2	0.315	5.18	6.94
66	OTOR	3	1.99	17	8.41
67	CILP	1	-0.0416	2.67	5.75
68	CILP	2	-0.000988	2.96	5.77
69	CILP	3	-1.04	-4.34	3.74
